Some of the results follow.

The assay deals with T1, OsSMF1 (Oryza sativa, UniProt Q6ZLB0 1-436).
T1 sequence: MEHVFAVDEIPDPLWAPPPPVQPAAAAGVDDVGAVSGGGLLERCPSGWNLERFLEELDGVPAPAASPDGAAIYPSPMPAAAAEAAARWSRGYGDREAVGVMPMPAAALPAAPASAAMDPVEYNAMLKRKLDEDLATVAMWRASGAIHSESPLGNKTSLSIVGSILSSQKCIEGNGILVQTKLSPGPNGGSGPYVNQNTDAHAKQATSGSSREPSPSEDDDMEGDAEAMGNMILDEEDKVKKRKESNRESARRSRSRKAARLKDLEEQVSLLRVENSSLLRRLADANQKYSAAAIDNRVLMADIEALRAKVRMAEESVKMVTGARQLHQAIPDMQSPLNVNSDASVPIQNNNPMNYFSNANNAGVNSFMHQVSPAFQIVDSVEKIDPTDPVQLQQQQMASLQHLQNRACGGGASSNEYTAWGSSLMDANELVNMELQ
Nature of the assay: protein-binding microarray (RPBM); PBS, 2% BSA, 51.3 ng/ul salmon testes DNA, 50 uM zinc acetate, 200 nM TF, 25 C, 1 h; high values mean tight binding. Particulars: protein: recombinant; tags: N-terminal polyhistidine and DsRed monomer fusion (pET32a); chain copies: 2; label: CyDye5-dUTP incorporated in the synthesized complementary strand; 3' TTTTT single-stranded linker to array surface; dsDNA, one strand shown. Summed up:
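Polyhistidine-tagged DsRed fusions of transcription factors, joined at the N-terminus, were expressed in E. coli BL21-CodonPlus and isolated on Ni–NTA. They were incubated at 200 nM for 1 h at 25 °C on a custom Agilent array, double-stranded and BSA-blocked, in PBS with 2% BSA, salmon testes DNA and 50 µM zinc acetate. The binding signal is per-feature fluorescence intensity (arbitrary units) read on an Axon 4000B scanner after washing.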
For “TAAGTTCATCCTACACGTCAGGCACGATCCGAAGCGGCTACGGAGTCACCTAGTGCAG”, the binding signal was 5780 fluorescence intensity (a.u.). The value for “CGAGTGACTGACGTGTGGGCTCGGTGGTAGATAAACTCGGCGGAGTCACCTAGTGCAG” was 6210 fluorescence intensity (a.u.); that for “TGATGAGTCAGAGCTATTTCCTCCATCGTATAAGATTTTACGGAGTCACCTAGTGCAG” was 20400 fluorescence intensity (a.u.); that for “GGACCAATCACGTGGCGCCACGTAAGCGCAAGCCCGCCCCCGGAGTCACCTAGTGCAG” was 33200 fluorescence intensity (a.u.). For “ATCTCACCTCCCATATCTTATTTGCCAAACACACCCTTCCCGGAGTCACCTAGTGCAG”, the binding signal was 3210 fluorescence intensity (a.u.). In the case of “TTATGAGTTTAGAGGGATGATTAGGATACATGGGAATTTTCGGAGTCACCTAGTGCAG”, the binding signal is 22200 fluorescence intensity (a.u.). The value for “TGACCAAAATTTGAAACTTTCAATACAATTATGAAACTTTCGGAGTCACCTAGTGCAG” was 6370 fluorescence intensity (a.u.); that for “GGCGATCCAGTCTATCGGCGTGTCCAGGTAACTGTTCGTCCGGAGTCACCTAGTGCAG” was 3150 fluorescence intensity (a.u.).

In the case of “TCTGGGTTGAGATAAATTCCAGGTACGCGTGGAACTGTGTCGGAGTCACCTAGTGCAG”, the binding signal is 25900 fluorescence intensity (a.u.). In the case of “AGCGCAATCACACGGGCGTGAGACCGCCACGTGTCCGGTGCGGAGTCACCTAGTGCAG”, the binding signal was 14800 fluorescence intensity (a.u.). With “TTTTGGGCCTCCTGTGACCTACATGGGCCGCACTTCTTTCCGGAGTCACCTAGTGCAG” the figure was 25900 fluorescence intensity (a.u.). The value for “CCTCCAATCTCGTCACCAACCAAACCACCTCGCCGCAGATCGGAGTCACCTAGTGCAG” was 4350 fluorescence intensity (a.u.). With “GACGGAAACCGAAAGCAAATCCACGCCACCGGCGAGCCCGCGGAGTCACCTAGTGCAG” the figure was 3370 fluorescence intensity (a.u.); with “GTTGTATTTACCTGCCTACTTGGTCATCAGAAGTACACCTCGGAGTCACCTAGTGCAG”, 3170 fluorescence intensity (a.u.); with “GTGGGTCCCACCTATGCCACGTGGCCGCATCCTGCCTCTCCGGAGTCACCTAGTGCAG”, 28900 fluorescence intensity (a.u.). In the case of “TCTGCCACCTTTGAAAGGTTCCGTCATCATGCACCAGTTTCGGAGTCACCTAGTGCAG”, the binding signal is 3900 fluorescence intensity (a.u.). “TATCATTCAAAGGCTATAAATAATTGAGGTGATGTGGCTTCGGAGTCACCTAGTGCAG”: the binding signal is 5000 fluorescence intensity (a.u.). The value for “TAAATATCCATTCGATTTAGCGTGTCAACTTCATCCATCTCGGAGTCACCTAGTGCAG” was 3980 fluorescence intensity (a.u.); that for “AGCTCATGGCACCTGATCGGCAATCAATCACCAAACGTGGCGGAGTCACCTAGTGCAG” was 3160 fluorescence intensity (a.u.); that for “ATGCAGATTAGCGTGCGATTAGCGAGGCCACGTGGCGCTGCGGAGTCACCTAGTGCAG” was 30600 fluorescence intensity (a.u.). In the case of “CCTGCCCCTCCACGCCCTCACCACAAACCCACGTGGGCCCCGGAGTCACCTAGTGCAG”, the binding signal was 4240 fluorescence intensity (a.u.). On to “ACATGCCAGCTCCAACACACGAGCTACAACCCGGTAATTACGGAGTCACCTAGTGCAG”, for which the binding signal was 3700 fluorescence intensity (a.u.).

In the case of “AAGCTAGTCACACATCACCATCACACACACCAAGCCACACCGGAGTCACCTAGTGCAG”, the binding signal was 4460 fluorescence intensity (a.u.).

On to “TTGTTGGACTCGCCGGTGAGAAGCGATGTGTCATGGAATGCGGAGTCACCTAGTGCAG”, for which the binding signal was 5590 fluorescence intensity (a.u.).

In the case of “ACAACGTTATTGACATCACTCTACAAGCCACGTCATTTTACGGAGTCACCTAGTGCAG”, the binding signal was 16800 fluorescence intensity (a.u.). With “AGGACAGGAAAGTGGGTGAAAGATCAGGAACAGATTTTGGCGGAGTCACCTAGTGCAG” the figure was 7340 fluorescence intensity (a.u.).

On to “AAGAAAATGCACATGGACATGTGTCAGCGCATAAACACGCCGGAGTCACCTAGTGCAG”, for which the binding signal is 4040 fluorescence intensity (a.u.). The value for “CTACGTTACACTGTGCGTGGCTTGTCTCTGCTCTATATGTCGGAGTCACCTAGTGCAG” was 4020 fluorescence intensity (a.u.); that for “ATGTCTTTCCATAGGAATTCAATCCTTGAAAATTCCTCCACGGAGTCACCTAGTGCAG” was 3240 fluorescence intensity (a.u.); that for “GCGCTGAAGATGTCCTGCGTGCACGCGACATCATCGTCAACGGAGTCACCTAGTGCAG” was 4450 fluorescence intensity (a.u.). With “TGGCCATCTTTATGTCCTACGTCATCTGTAGGTGGATCCTCGGAGTCACCTAGTGCAG” the figure was 9970 fluorescence intensity (a.u.). The value for “TGTTCTTATGTTCAACTCCCGGGACACTGTTCATCATACGCGGAGTCACCTAGTGCAG” was 4110 fluorescence intensity (a.u.); that for “GGTTCGGCGGCCGCAGGTGCCAGTCCACCGACGACGACGCCGGAGTCACCTAGTGCAG” was 32800 fluorescence intensity (a.u.). Turning to “GCATGGCTCCAGGACCAAGTGGAGCATCTGGCCAGTGCTGCGGAGTCACCTAGTGCAG”, the binding signal is 15200 fluorescence intensity (a.u.). Turning to “TTCTGAGGTTACTGCACATGAGTTCATTCTACAGCAACTACGGAGTCACCTAGTGCAG”, the binding signal is 33000 fluorescence intensity (a.u.). The value for “CTAATATTTATTGGATGACGTGGCTCATTTACGTTTCGTTCGGAGTCACCTAGTGCAG” was 27300 fluorescence intensity (a.u.). Consider “AGCCCCGGAGGAAGAAGACTCTCGGTCAAGAGTCAAGACTCGGAGTCACCTAGTGCAG”, for which the binding signal was 17200 fluorescence intensity (a.u.). Take “CCCACTCCAGAACGCCAGCCAGCCTGCCTGCCACATGGGGCGGAGTCACCTAGTGCAG”: the binding signal is 3800 fluorescence intensity (a.u.). As to “GCGGGAACACACCGCCGTAGCAAACCCCGCATCCGGCACCCGGAGTCACCTAGTGCAG”, the binding signal was 17400 fluorescence intensity (a.u.). In the case of “ACGTGCCCAAACATGAATGAGTTAGATATATTGTTTCATCCGGAGTCACCTAGTGCAG”, the binding signal was 3340 fluorescence intensity (a.u.). With “TTCCAATCCTTGCCACGCCCACCGCAGACCAAAGCCGCGCCGGAGTCACCTAGTGCAG” the figure was 3440 fluorescence intensity (a.u.); with “CTTCTAAGTAGGAAAATATGCTGACATGGATATCTTATAGCGGAGTCACCTAGTGCAG”, 5070 fluorescence intensity (a.u.).

The values are drawn from publication PMC7819943, “Rice protein-binding microarrays: a tool to detect cis-acting elements near promoter regions in rice”.
